Reference: publication PMC3460868
A negative result means that nothing was seen under these conditions. For some assays here: At least one verdict was read from the data and is not stated in words by the source. For some assays here: For at least one entry, the source does not settle the construct or the ends of the probe.

The chains behind the UniProt entries cited, without tags or fusion partners. Where a name states a change or a piece, a line headed by the entry shows the natural chain unless it says otherwise.
UniProt P0ACJ8: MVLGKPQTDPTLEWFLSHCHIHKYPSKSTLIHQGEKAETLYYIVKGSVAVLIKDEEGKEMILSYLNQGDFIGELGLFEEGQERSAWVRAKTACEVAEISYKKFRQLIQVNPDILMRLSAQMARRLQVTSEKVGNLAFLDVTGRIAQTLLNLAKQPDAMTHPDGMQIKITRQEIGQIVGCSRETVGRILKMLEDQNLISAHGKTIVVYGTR
UniProt P0A8V6: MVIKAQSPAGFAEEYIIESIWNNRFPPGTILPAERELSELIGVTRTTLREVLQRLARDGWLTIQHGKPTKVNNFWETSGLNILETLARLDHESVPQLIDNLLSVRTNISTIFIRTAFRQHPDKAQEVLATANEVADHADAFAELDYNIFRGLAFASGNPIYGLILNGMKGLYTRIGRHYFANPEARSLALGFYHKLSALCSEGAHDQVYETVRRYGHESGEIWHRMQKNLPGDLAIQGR

Molecular target: CRP (Escherichia coli) (UniProt P0ACJ8)
Experiment: EMSA
Conditions: no cAMP; Roche binding buffer (composition not given), 15 min, room temperature; CRP: 0.6 pmol probe in 20 ul (legend; Methods say 0.1 or 0.2 pmol), 5-20 pmol protein; recombinant protein; residues 1-210; protein details: His6 (pET28); label: DIG-ddUTP 3' (terminal transferase)

Binding result, no binding:
CACCGGGCGTATTCTTTTTGAATCCCATCACAAACCCCGCACTCC (double strand) [fadH CRP site 2 (probe 2)], CCCTACACTTCGCGCTCCTGTTACAGCACGTAACATAGTTTGTATAAAAATAAATC (double strand) [fadL CRP site 2 (probe 2)], GTAAAGATAAAAATAAATAGTGACGCGCTTCGCAACCTTTTCGTTGGG (double strand) [fadD CRP site], GTAACCTGGATAAAACGCGACAAGCGTCGCATCCGGCGTTATCACCGG (double strand) [fadH CRP site 1 (probe 1)]

Molecular target: FadR (Escherichia coli) (UniProt P0A8V6)
Experiment: EMSA
Conditions: oleoyl-CoA (25-50 uM in text, 50 pmol in 10 ul in legend); Roche binding buffer (composition not given), 15 min, room temperature; CRP: 0.6 pmol probe in 20 ul (legend; Methods say 0.1 or 0.2 pmol), 5-20 pmol protein; recombinant protein; protein details: His6 (pET28); label: DIG-ddUTP 3' (terminal transferase)

Binding result, no binding:
CTCTCGCCACTGGTCTGATTTCTAAGATGTACCTC (double strand) [fadL FadR site 2], GAAACAGCGGCTGGTCCGCTGTTTCTGCATTCT (double strand) [fadD FadR site 2], GCAACATTCCAGCTGGTCCGACCTATACTCTCGCC (double strand) [fadL FadR site 1], GTAATTATCAAGCTGGTATGATGAGTTAATATTATG (double strand) [fadD FadR site 1]
